Experimental data as given in patent US20210206851A1.
These are yes or no findings as the source states them, for the method shown. A result given as binding can be weak or reduced; the word gives no strength.

Key:
[1] = target: endogenous cynomolgus monkey LAG-3 on SEB-stimulated cynomolgus monkey PBMCs (cynomolgus monkey); assay: flow cytometry; cynomolgus monkey PBMCs, donor Cyno9238385617, SEB 500 ng/mL or unstimulated; detected with goat anti-human Fc-APC; no isotype control shown
[2] = target: endogenous cynomolgus monkey LAG-3 on SEB-stimulated cynomolgus monkey PBMCs (cynomolgus monkey); assay: FACS on SEB-stimulated cynomolgus monkey PBMCs, goat-anti human Fc-APC
[3] = target: endogenous cynomolgus monkey LAG-3 on SEB-stimulated cynomolgus monkey PBMCs (cynomolgus monkey); assay: flow cytometry; cynomolgus monkey PBMCs, donor Cyno9153462442, SEB 500 ng/mL or unstimulated; detected with goat anti-human Fc-APC; no isotype control shown

Measured: binding

B1: hLAG-3 mAb 6 (1.1) (antibody, V domains shown)
VH: QVQLVQSGAEVKKPGASVKVSCKASGYTFTDYNMDWVRQAPGQGLEWMGDINPDNGVTIYNQKFEGRVTMTTDTSTSTAYMELRSLRSDDTAVYYCAREADYFYFDYWGQGTTLTVSS
VL: DIQMTQSPSSLSASVGDRVTITCRASQDVSSVVAWYQQKPGKAPKLLIYSASYRYTGVPSRFSGSGSGTDFTLTISSLQPEDFATYYCQQHYSTPWTFGGGTKLEIK
binds: [1] | [2] | [3]
